Reference: PubChem BioAssay AID1224830 (NIAID, 2016)
The whole screen tested about 18,000 reagents; this is an unselected part. About 2,900 of all reagents (16%) count as active. 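Calls are made per well; low scores hint the gene aids the LPS response, high scores that it dampens it.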 Entries without a mark were called inactive. Repeated entries: four replicate wells of each siRNA pool.

Screen: 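Regulators of TLR4 signalling towards TNF-alpha in macrophage-like cells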 (primary screen)
Cell system: human THP-1 monocytic leukaemia cells, TNF dual-luciferase reporter clone, PMA-differentiated to macrophage-like cells
Reagent: siRNA pool against human genes, 50 nM
Duration: LPS for 4 h, given about 3 days after siRNA transfection
Conditions: bacterial LPS (TLR4 ligand), 10 ng/ml
Detection: 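Ratio of firefly to renilla light, scaled to the plate median and expressed as a robust z-score per replicate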
Direction: TNF reporter robust z-score: higher = stronger TNF reporter response to LPS
Active means: 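a well is active when its z-score exceeds 2.8 or falls below -1.5; control wells carry no call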

target | PubChem SID | TNF reporter robust z-score
SRGAP2 | SID315455197 | -0.49
SRGAP2 | SID315455197 | -0.3
SRGAP2 | SID315455197 | -1.13
SRGAP2 | SID315455197 | 1.77
OTX2 | SID315450383 | -0.89
OTX2 | SID315450383 | -0.7
OTX2 | SID315450383 | 0.16
OTX2 | SID315450383 | -0.75
TXLNA | SID315463021 | -0.05
TXLNA | SID315463021 | 0.96
TXLNA | SID315463021 | 0.23
TXLNA | SID315463021 | 0.33
MGARP | SID315460481 | 0.94
MGARP | SID315460481 | 1.04
MGARP | SID315460481 | 0.87
MGARP | SID315460481 | 0.67
ZNF560 | SID315462337 | 1.11
ZNF560 | SID315462337 | 1.03
ZNF560 | SID315462337 | -0.19
ZNF560 | SID315462337 | -0.56
GHSR | SID315448894 | 1.44
GHSR | SID315448894 | 2.1
GHSR | SID315448894 | 0.06
GHSR | SID315448894 | 1.54
TMEM120A | SID315460102 | -1.2
TMEM120A | SID315460102 | -0.31
TMEM120A | SID315460102 | -0.84
TMEM120A | SID315460102 | -0.79
NGLY1 | SID315457841 | -0.01
NGLY1 | SID315457841 | -0.31
NGLY1 | SID315457841 | 0.2
NGLY1 | SID315457841 | 0.28
ME1 | SID315449926 | -0.17
ME1 | SID315449926 | 0.29
ME1 | SID315449926 | 0.16
ME1 | SID315449926 | 0.58
FRMD5 | SID315460621 | -1.38
FRMD5 | SID315460621 | -0.76
FRMD5 | SID315460621 | -0.79
FRMD5 | SID315460621 | -1.53 (active)
HCG9 | SID315453951 | 2.47
HCG9 | SID315453951 | 1.28
HCG9 | SID315453951 | 5.91 (active)
HCG9 | SID315453951 | 2.66
LOC653978 (retired record) | SID315465160 | 1.13
LOC653978 (retired record) | SID315465160 | -0.04
LOC653978 (retired record) | SID315465160 | 1.84
LOC653978 (retired record) | SID315465160 | 1.42
NAT8B | SID315456728 | -0.5
NAT8B | SID315456728 | -0.44
NAT8B | SID315456728 | -0.27
NAT8B | SID315456728 | 0.18
OR3A3 | SID315452531 | -1.62 (active)
OR3A3 | SID315452531 | -0.39
OR3A3 | SID315452531 | -1.72 (active)
OR3A3 | SID315452531 | 0.33
MLXIPL | SID315456455 | -1.03
MLXIPL | SID315456455 | -1.11
MLXIPL | SID315456455 | -1.02
MLXIPL | SID315456455 | 0.02
RRP1 | SID315452664 | -1.9 (active)
RRP1 | SID315452664 | -0.44
RRP1 | SID315452664 | -1.6 (active)
RRP1 | SID315452664 | -1.19
TRIM50 | SID315461996 | -0.96
TRIM50 | SID315461996 | -0.18
TRIM50 | SID315461996 | -1.98 (active)
TRIM50 | SID315461996 | -0.2
REG1B | SID315451093 | 1.77
REG1B | SID315451093 | 0.65
REG1B | SID315451093 | 2.86 (active)
REG1B | SID315451093 | 1.85

A portion of the results above, for reference:
target | PubChem SID | TNF reporter robust z-score
SRGAP2 | SID315455197 | -0.49
SRGAP2 | SID315455197 | -0.3
SRGAP2 | SID315455197 | -1.13
SRGAP2 | SID315455197 | 1.77
OTX2 | SID315450383 | -0.89
OTX2 | SID315450383 | -0.7
OTX2 | SID315450383 | 0.16

Further reagents follow.
target | PubChem SID | TNF reporter robust z-score
MMGT1 | SID315461073 | 0.73
MMGT1 | SID315461073 | 1.14
MMGT1 | SID315461073 | 0.67
MMGT1 | SID315461073 | -1.25
TMEM164 | SID315460230 | 0.82
TMEM164 | SID315460230 | 2.68
TMEM164 | SID315460230 | 1.51
TMEM164 | SID315460230 | 2.21
SEC31B | SID315455577 | -1.29
SEC31B | SID315455577 | -0.65
SEC31B | SID315455577 | -1.25
SEC31B | SID315455577 | -1.32
PWWP3B | SID315462067 | 0.42
PWWP3B | SID315462067 | -0.23
PWWP3B | SID315462067 | 0.91
PWWP3B | SID315462067 | -0.27
HIPK4 | SID315462339 | 2.19
HIPK4 | SID315462339 | 3.36 (active)
HIPK4 | SID315462339 | 0.56
HIPK4 | SID315462339 | 2.06
NALF2 | SID315455926 | 2.07
NALF2 | SID315455926 | 1.39
NALF2 | SID315455926 | 1.11
NALF2 | SID315455926 | 0.54
FAIM | SID315457471 | -0.08
FAIM | SID315457471 | 1.73
FAIM | SID315457471 | 0.28
FAIM | SID315457471 | -0.31
BAG5 | SID315453358 | -1.36
BAG5 | SID315453358 | -0.61
BAG5 | SID315453358 | -0.27
BAG5 | SID315453358 | -0.88
CREG2 | SID315463036 | 0.09
CREG2 | SID315463036 | -1.14
CREG2 | SID315463036 | -1.31
CREG2 | SID315463036 | 0.02
CABS1 | SID315460688 | 0.4
CABS1 | SID315460688 | 1.43
CABS1 | SID315460688 | 0.37
CABS1 | SID315460688 | 1.7
